This note sets out measurements from publication PMC12794176.

Results are given in words; binding and its absence hold for the method and conditions named. In cells and extracts the contact can be indirect. Some binding calls cover weakened binding; strength is not graded here.

The assay deals with Lymphocyte activation gene 3 (LAG3) (UniProt P18627). Put plainly: split reporter; bimolecular fluorescence complementation in cells, read by fluorescence imaging; cells and split fragments not stated in the main text.

B1: Lymphocyte activation gene 3 (LAG3) (receptor, UniProt P18627 23-525)
chain: LQPGAEVPVVWAQEGAPAQLPCSPTIPLQDLSLLRRAGVTWQHQPDSGPPAAAPGHPLAPGPHPAAPSSWGPRPRRYTVLSVGPGGLRSGRLPLQPRVQLDERGRQRGDFSLWLRPARRADAGEYRAAVHLRDRALSCRLRLRLGQASMTASPPGSLRASDWVILNCSFSRPDRPASVHWFRNRGQGRVPVRESPHHHLAESFLFLPQVSPMDSGPWGCILTYRDGFNVSIMYNLTVLGLEPPTPLTVYAGAGSRVGLPCRLPAGVGTRSFLTAKWTPPGGGPDLLVTGDNGDFTLRLEDVSQAQAGTYTCHIHLQEQQLNATVTLAIITVTPKSFGSPGSLGKLLCEVTPVSGQERFVWSSLDTPSQRSFSGPWLEAQEAQLLSQPWQCQLYQGERLLGAAVYFTELSSPGAQRSGRAPGALPAGHLLLFLILGVLSLLLLVTGAFGFHLWRRQWRPRRFSALEQGIHPPQAQSKIEELEQEPEPEPEPEPEPEPEPEPEQL
As for B1, the binding entry was “binds”.
